Source: the supplement of paper PMC6411743
± gives the standard deviation of the averaged measurements. Only a part is listed here, and it is no random draw.

Tests used:
Experiment in all cases: NP40-soluble protein abundance relative to vehicle (solubility fold change) (ratio); higher = more soluble protein in presence of AMP-PNP
[1] = molecular target: T1, G3V5P0 and related entries (UniProt Q86UP2)
T1 sequence (whole entry): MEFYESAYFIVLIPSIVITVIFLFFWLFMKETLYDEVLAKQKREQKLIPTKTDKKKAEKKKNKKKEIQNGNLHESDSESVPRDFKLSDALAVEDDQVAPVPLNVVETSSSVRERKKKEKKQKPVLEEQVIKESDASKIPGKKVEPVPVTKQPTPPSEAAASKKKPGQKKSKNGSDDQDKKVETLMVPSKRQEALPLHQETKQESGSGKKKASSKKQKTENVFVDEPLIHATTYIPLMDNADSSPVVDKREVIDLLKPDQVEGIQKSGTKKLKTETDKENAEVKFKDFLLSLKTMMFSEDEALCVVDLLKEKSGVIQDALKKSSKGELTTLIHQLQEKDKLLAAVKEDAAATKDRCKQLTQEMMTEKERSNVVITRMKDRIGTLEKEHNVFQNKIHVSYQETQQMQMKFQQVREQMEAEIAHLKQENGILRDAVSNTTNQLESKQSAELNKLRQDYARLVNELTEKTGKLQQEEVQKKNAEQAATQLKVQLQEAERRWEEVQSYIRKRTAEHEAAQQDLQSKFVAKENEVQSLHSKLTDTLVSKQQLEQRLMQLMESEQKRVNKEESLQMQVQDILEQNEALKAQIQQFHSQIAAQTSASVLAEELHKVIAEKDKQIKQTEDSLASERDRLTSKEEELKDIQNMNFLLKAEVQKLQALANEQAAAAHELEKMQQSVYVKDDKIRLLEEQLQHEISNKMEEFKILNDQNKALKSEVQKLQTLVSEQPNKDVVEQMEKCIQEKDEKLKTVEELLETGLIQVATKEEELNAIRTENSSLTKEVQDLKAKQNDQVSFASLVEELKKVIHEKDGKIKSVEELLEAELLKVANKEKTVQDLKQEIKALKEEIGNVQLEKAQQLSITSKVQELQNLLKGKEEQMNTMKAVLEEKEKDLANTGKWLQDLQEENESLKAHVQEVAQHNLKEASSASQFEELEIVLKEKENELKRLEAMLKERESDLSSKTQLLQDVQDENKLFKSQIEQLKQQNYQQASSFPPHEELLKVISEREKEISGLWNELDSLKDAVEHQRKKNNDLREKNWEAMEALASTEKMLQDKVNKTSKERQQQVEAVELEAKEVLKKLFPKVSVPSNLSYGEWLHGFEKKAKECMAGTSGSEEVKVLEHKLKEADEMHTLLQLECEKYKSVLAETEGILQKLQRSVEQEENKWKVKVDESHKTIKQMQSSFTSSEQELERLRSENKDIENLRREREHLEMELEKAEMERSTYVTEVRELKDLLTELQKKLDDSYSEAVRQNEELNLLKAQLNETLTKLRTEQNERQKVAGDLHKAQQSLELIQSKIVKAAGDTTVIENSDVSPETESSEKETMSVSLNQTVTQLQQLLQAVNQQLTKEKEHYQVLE
In short: (§1)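 Each value is a fold change relative to the detergent-processed vehicle, calculated per replicate from vsn-normalised intensities. Jurkat crude lysate received eight concentrations (0.1 to 10 mM) for 10 min at room temperature and 3 min at 37 °C, then was solubilised in 0.8% NP40 with benzonase (60 min, 4 °C). The ultracentrifuged supernatant was TMT-labelled and run by LC-MS/MS in three independent experiments.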

[2] = molecular target: T2, G3V5T0 and related entries (UniProt O43708)
T2 sequence (whole entry): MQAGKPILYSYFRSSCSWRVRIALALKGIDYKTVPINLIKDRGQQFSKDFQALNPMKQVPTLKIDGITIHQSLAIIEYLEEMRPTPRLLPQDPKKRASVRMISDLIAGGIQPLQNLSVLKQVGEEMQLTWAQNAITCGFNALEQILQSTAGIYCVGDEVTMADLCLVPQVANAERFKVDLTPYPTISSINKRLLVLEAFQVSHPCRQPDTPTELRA
In short: as §1

[3] = molecular target: T3, G5E9V4 and related entries (UniProt Q969F9)
T3 sequence (whole entry): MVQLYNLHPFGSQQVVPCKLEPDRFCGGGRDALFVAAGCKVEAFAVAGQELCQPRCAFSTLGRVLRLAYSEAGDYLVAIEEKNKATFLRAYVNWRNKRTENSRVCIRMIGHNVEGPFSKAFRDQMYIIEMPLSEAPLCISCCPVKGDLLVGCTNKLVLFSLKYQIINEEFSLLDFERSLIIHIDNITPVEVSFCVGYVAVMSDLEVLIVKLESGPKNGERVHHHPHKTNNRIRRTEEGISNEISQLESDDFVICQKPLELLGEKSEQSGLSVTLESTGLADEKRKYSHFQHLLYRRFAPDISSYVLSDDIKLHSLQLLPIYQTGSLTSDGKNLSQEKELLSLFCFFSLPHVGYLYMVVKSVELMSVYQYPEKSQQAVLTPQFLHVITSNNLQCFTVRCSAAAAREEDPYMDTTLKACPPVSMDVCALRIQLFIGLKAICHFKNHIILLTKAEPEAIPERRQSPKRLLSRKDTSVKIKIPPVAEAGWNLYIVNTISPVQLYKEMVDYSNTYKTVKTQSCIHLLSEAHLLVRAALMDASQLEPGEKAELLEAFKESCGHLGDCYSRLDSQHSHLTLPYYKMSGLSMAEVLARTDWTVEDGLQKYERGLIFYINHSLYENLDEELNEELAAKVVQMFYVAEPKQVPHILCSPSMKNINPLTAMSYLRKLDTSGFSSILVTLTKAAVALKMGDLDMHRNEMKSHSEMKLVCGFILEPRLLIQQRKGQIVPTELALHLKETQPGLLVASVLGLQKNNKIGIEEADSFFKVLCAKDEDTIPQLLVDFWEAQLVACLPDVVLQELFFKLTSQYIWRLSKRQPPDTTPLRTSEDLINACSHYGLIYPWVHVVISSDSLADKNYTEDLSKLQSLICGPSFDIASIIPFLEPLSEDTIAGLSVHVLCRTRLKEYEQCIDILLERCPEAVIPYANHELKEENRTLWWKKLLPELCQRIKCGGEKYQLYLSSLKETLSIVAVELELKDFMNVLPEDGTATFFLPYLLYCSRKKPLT
In short: as §1

[4] = molecular target: T4, H0Y9I3 and related entries (UniProt Q9HAV4)
T4 sequence (whole entry): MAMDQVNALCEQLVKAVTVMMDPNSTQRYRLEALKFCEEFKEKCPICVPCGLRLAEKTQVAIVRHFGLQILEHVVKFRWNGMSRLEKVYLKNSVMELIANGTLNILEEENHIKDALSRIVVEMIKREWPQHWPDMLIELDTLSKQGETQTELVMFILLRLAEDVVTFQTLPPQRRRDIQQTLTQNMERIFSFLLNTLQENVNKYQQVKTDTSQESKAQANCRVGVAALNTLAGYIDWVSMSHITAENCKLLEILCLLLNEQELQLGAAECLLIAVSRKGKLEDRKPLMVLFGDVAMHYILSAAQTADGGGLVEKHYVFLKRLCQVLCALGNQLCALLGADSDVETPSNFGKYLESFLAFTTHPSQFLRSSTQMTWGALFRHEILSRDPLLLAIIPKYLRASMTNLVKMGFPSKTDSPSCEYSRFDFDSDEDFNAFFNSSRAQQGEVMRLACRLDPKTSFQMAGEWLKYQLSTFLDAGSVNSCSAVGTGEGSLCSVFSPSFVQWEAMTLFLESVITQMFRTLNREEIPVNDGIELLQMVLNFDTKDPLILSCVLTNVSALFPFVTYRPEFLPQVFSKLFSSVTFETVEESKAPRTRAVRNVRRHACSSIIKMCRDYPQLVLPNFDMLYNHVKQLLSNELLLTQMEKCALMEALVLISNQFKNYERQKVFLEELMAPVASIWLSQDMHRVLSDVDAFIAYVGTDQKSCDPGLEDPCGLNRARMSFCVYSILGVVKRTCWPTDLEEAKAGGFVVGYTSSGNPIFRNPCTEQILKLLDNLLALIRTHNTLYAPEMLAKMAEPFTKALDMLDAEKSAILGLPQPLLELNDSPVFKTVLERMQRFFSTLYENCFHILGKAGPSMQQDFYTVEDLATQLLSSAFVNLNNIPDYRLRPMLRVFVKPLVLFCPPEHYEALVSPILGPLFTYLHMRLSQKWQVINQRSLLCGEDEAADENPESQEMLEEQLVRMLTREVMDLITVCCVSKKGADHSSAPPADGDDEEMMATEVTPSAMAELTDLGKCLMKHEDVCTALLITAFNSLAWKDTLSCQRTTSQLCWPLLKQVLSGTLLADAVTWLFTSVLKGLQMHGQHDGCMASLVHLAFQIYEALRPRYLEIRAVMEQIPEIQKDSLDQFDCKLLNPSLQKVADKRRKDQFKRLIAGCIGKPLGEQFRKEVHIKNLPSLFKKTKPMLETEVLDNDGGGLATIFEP
In short: as §1

[5] = molecular target: T5, H0YBI6 and related entries (UniProt Q86VQ6); conditions: concentration: 1mM
T5 sequence (whole entry): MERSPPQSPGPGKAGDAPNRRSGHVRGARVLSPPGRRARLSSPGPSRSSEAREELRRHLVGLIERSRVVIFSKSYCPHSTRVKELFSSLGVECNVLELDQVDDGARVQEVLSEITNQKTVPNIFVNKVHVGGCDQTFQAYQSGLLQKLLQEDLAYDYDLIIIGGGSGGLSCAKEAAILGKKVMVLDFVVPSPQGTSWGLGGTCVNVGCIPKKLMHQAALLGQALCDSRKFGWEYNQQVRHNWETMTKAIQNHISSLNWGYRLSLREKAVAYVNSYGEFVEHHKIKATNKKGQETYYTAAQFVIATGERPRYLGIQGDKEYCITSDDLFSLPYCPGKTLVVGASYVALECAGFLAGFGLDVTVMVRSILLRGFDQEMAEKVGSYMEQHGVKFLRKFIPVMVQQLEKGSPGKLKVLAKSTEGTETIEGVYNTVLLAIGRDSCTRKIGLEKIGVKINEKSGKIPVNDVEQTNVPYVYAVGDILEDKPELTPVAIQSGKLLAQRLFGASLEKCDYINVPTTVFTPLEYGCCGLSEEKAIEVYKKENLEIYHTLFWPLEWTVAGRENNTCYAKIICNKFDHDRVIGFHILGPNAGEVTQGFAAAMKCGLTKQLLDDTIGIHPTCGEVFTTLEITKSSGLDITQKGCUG
In short: as §1

Nc1ncnc2c1ncn2[C@@H]1O[C@H](COP(=O)(O)OP(=O)(O)NP(=O)(O)O)[C@@H](O)[C@H]1O [adenylyl imidodiphosphate]
NP40-soluble protein abundance ([1]; concentration: 1mM): 1.02 ± 0.043
NP40-soluble protein abundance ([1]; concentration: 2mM): 1.08 ± 0.051
NP40-soluble protein abundance ([1]; concentration: 4mM): 0.995 ± 0.028
NP40-soluble protein abundance ([1]; concentration: 6mM): 0.991 ± 0.071
NP40-soluble protein abundance ([1]; concentration: 8mM): 0.957 ± 0.044
NP40-soluble protein abundance ([1]; concentration: 10mM): 0.972 ± 0.031
NP40-soluble protein abundance ([2]; concentration: 1mM): 0.9873 ± 0.0084
NP40-soluble protein abundance ([2]; concentration: 2mM): 0.942 ± 0.032
NP40-soluble protein abundance ([2]; concentration: 4mM): 0.956 ± 0.016
NP40-soluble protein abundance ([2]; concentration: 6mM): 0.956 ± 0.019
NP40-soluble protein abundance ([2]; concentration: 8mM): 0.975 ± 0.0099
NP40-soluble protein abundance ([2]; concentration: 10mM): 0.935 ± 0.017
NP40-soluble protein abundance ([3]; concentration: 1mM): 0.963 ± 0.038
NP40-soluble protein abundance ([3]; concentration: 2mM): 0.948 ± 0.022
NP40-soluble protein abundance ([3]; concentration: 4mM): 0.983 ± 0.017
NP40-soluble protein abundance ([3]; concentration: 6mM): 0.978 ± 0.021
NP40-soluble protein abundance ([3]; concentration: 8mM): 0.99 ± 0.037
NP40-soluble protein abundance ([3]; concentration: 10mM): 0.98 ± 0.035
NP40-soluble protein abundance ([4]; concentration: 1mM): 0.972 ± 0.025
NP40-soluble protein abundance ([4]; concentration: 2mM): 0.918 ± 0.044
NP40-soluble protein abundance ([4]; concentration: 4mM): 0.945 ± 0.04
NP40-soluble protein abundance ([4]; concentration: 6mM): 0.924 ± 0.017
NP40-soluble protein abundance ([4]; concentration: 8mM): 0.9446 ± 0.0092
NP40-soluble protein abundance ([4]; concentration: 10mM): 0.8992 ± 0.008
NP40-soluble protein abundance [5]: 1 ± 0.02
